Results deposited as PubChem BioAssay AID652243 (Drosophila RNAi Screening Center, 2013)
Test: 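Fly regulators of androgen-dependent reporter output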 (primary screen). System: Drosophila S2R+ cells. Knock-down reagent: long dsRNA against Drosophila genes. Duration: 72 h (48 h, then 24 h hormone). Challenge: synthetic androgen R1881 at 10 nM for 24 h. Measured: 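Per-well raw luminescence of the androgen-driven firefly reporter and of the Renilla control, two replicates each, without normalisation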. Direction: firefly reporter light: higher = more light from androgen-responsive reporter; Renilla control light: higher = more constitutive control signal (cell number, transfection). Rule for the call: 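Across duplicate plates, a knock-down whose log firefly/Renilla ratio shifted a set fold down or up from the GFP/LacZ control mean was a hit; the downward cut appears as both 1.5 and 3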. Calls: active = hit: reporter lowered or raised; inactive = no hit.
The deposit covers about 24,000 reagents; this is an unselected part of those with a known target gene and a result. In the full data, 246 (1%) got an active call. 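Plates not normalised; calls are printed but the firefly/Renilla ratio behind them is not deposited; fold cut for lowering reported inconsistently.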 The raw values are shown without normalisation. A number with no mark means an inactive call. The numbers tell different reagents against one gene apart. A plus sign joins genes that one reagent is predicted to hit. The record does not give: the amount of reagent.

ort (ora transientless)
- firefly reporter light, replicate 1: 2.15e5
- firefly reporter light, replicate 2: 3.67e5
- Renilla control light, replicate 1: 2.81e6
- Renilla control light, replicate 2: 3.17e6

Cpr76Bd (Cuticular protein 76Bd)
- firefly reporter light, replicate 1: 2.38e5
- firefly reporter light, replicate 2: 1.87e5
- Renilla control light, replicate 1: 2.09e6
- Renilla control light, replicate 2: 1.79e6

PH4alphaMP (prolyl-4-hydroxylase-alpha MP)
- firefly reporter light, replicate 1: 1.90e5
- firefly reporter light, replicate 2: 2.61e5
- Renilla control light, replicate 1: 1.98e6
- Renilla control light, replicate 2: 2.26e6

CG1368 #1
- firefly reporter light, replicate 1: 1.12e5
- firefly reporter light, replicate 2: 81951
- Renilla control light, replicate 1: 6.51e5
- Renilla control light, replicate 2: 3.86e5

CG1368 #2
- firefly reporter light, replicate 1: 8.04e5
- firefly reporter light, replicate 2: 9.62e5
- Renilla control light, replicate 1: 1.59e6
- Renilla control light, replicate 2: 1.51e6

CG1368 #3
- firefly reporter light, replicate 1: 9.87e5
- firefly reporter light, replicate 2: 1.03e6
- Renilla control light, replicate 1: 2.05e6
- Renilla control light, replicate 2: 2.12e6

TMEM216 + CG11760
- firefly reporter light, replicate 1: 1.55e5
- firefly reporter light, replicate 2: 1.19e5
- Renilla control light, replicate 1: 1.07e6
- Renilla control light, replicate 2: 1.27e6

Cog4 (Component of oligomeric golgi complex 4)
- firefly reporter light, replicate 1: 1.38e6
- firefly reporter light, replicate 2: 1.31e6
- Renilla control light, replicate 1: 2.65e6
- Renilla control light, replicate 2: 2.87e6

mspo (M-spondin) #1
- firefly reporter light, replicate 1: 89761 (active)
- firefly reporter light, replicate 2: 82919
- Renilla control light, replicate 1: 2.83e6
- Renilla control light, replicate 2: 2.83e6

mspo (M-spondin) #2
- firefly reporter light, replicate 1: 9.09e5
- firefly reporter light, replicate 2: 1.05e6
- Renilla control light, replicate 1: 1.80e6
- Renilla control light, replicate 2: 1.29e6

CG3534 #1
- firefly reporter light, replicate 1: 1.14e5
- firefly reporter light, replicate 2: 1.25e5
- Renilla control light, replicate 1: 2.06e6
- Renilla control light, replicate 2: 2.38e6

CG3534 #2
- firefly reporter light, replicate 1: 2.61e5
- firefly reporter light, replicate 2: 2.80e5
- Renilla control light, replicate 1: 6.42e5
- Renilla control light, replicate 2: 6.71e5

MRP (Multidrug-Resistance like Protein 1)
- firefly reporter light, replicate 1: 8.04e5
- firefly reporter light, replicate 2: 9.06e5
- Renilla control light, replicate 1: 1.58e6
- Renilla control light, replicate 2: 2.14e6

CG9855 #1
- firefly reporter light, replicate 1: 4.00e5 (active)
- firefly reporter light, replicate 2: 5.05e5
- Renilla control light, replicate 1: 1.65e6
- Renilla control light, replicate 2: 2.23e6

CG9855 #2
- firefly reporter light, replicate 1: 1.47e6
- firefly reporter light, replicate 2: 1.54e6
- Renilla control light, replicate 1: 1.10e6
- Renilla control light, replicate 2: 8.81e5

CG9855 #3
- firefly reporter light, replicate 1: 9.19e5
- firefly reporter light, replicate 2: 7.22e5
- Renilla control light, replicate 1: 1.98e6
- Renilla control light, replicate 2: 1.27e6

CG9192
- firefly reporter light, replicate 1: 72524
- firefly reporter light, replicate 2: 59115
- Renilla control light, replicate 1: 7.05e5
- Renilla control light, replicate 2: 7.56e5

Prp18
- firefly reporter light, replicate 1: 1.14e5
- firefly reporter light, replicate 2: 1.13e5
- Renilla control light, replicate 1: 8.38e5
- Renilla control light, replicate 2: 8.49e5

eIF5B (eukaryotic translation initiation factor 5B) #1
- firefly reporter light, replicate 1: 77284
- firefly reporter light, replicate 2: 85388
- Renilla control light, replicate 1: 7.92e5
- Renilla control light, replicate 2: 9.57e5

eIF5B (eukaryotic translation initiation factor 5B) #2
- firefly reporter light, replicate 1: 1.46e5
- firefly reporter light, replicate 2: 99120
- Renilla control light, replicate 1: 1.16e6
- Renilla control light, replicate 2: 1.10e6

eIF5B (eukaryotic translation initiation factor 5B) #3
- firefly reporter light, replicate 1: 7.68e5
- firefly reporter light, replicate 2: 4.29e5
- Renilla control light, replicate 1: 7.36e5
- Renilla control light, replicate 2: 4.65e5

Already shown: 3 of the entries above.
CG9855 #1
- firefly reporter light, replicate 1: 4.00e5 (active)
- firefly reporter light, replicate 2: 5.05e5
- Renilla control light, replicate 1: 1.65e6
- Renilla control light, replicate 2: 2.23e6

CG9855 #2
- firefly reporter light, replicate 1: 1.47e6
- firefly reporter light, replicate 2: 1.54e6
- Renilla control light, replicate 1: 1.10e6
- Renilla control light, replicate 2: 8.81e5

CG9855 #3
- firefly reporter light, replicate 1: 9.19e5
- firefly reporter light, replicate 2: 7.22e5
- Renilla control light, replicate 1: 1.98e6
- Renilla control light, replicate 2: 1.27e6
